System: A2780 cells
Experiment: Cellular uptake, cytoplasm/nucleus/membrane fractions
Type: cell-based, human
Details: 10 μM, 12 h

Row | SMILES | cytoplasm level relative to nucleus | intracellular localization
1 | [N]#[Os]1([Cl])([Cl])([Cl])[N]2C=CC(c3ccccc3)=c3ccc4c(c32)[N]1C=CC=4c1ccccc1 [Complex 4, OsN(4,7-diphenyl-1,10-phenanthroline)Cl3] | 12 fold | predominantly found in the cytoplasm
2 | [N]#[Os]1([Cl])([Cl])([Cl])[N]2C=CC=c3ccc4c(c32)[N]1C=CC=4 [Complex 2, OsN(1,10-phenanthroline)Cl3] |  | localized essentially evenly between the nucleus and cytoplasm

Reference: patent US10662210B2, “Compositions and methods comprising osmium for the treatment of cancers” (Massachusetts Institute of Technology, priority 2014, dated 2020)
